The values that follow come from paper PMC11369598.

Protein sequences, listed by entry. Tags and fused reporters are not part of them.
UniProt Q9UHP3: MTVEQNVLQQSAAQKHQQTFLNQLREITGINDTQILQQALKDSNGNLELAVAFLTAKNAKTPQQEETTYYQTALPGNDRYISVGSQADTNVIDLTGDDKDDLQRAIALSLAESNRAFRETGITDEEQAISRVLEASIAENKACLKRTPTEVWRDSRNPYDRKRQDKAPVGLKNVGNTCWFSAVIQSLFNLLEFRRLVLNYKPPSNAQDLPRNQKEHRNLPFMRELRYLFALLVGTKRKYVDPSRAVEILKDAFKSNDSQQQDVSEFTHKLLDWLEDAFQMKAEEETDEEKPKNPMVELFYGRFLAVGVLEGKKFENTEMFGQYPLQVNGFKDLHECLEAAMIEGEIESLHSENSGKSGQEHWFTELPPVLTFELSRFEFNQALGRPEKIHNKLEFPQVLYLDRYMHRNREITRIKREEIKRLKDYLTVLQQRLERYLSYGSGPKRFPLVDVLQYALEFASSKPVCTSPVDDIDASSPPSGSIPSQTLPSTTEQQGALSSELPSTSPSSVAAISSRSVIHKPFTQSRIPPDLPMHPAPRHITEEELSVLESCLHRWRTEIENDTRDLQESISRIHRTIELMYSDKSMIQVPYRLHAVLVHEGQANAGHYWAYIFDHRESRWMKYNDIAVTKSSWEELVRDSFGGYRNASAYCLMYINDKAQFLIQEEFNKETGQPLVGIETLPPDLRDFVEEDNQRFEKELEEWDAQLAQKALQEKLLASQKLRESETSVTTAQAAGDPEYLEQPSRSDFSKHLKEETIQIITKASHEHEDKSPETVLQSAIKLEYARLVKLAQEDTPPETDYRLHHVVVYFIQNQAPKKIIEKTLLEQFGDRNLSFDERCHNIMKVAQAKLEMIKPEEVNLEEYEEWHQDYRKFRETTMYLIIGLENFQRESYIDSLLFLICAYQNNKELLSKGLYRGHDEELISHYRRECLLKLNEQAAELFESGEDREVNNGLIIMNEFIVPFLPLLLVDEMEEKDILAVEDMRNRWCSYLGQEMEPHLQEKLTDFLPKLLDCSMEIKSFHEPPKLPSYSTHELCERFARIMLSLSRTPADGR
UniProt Q5T4S7: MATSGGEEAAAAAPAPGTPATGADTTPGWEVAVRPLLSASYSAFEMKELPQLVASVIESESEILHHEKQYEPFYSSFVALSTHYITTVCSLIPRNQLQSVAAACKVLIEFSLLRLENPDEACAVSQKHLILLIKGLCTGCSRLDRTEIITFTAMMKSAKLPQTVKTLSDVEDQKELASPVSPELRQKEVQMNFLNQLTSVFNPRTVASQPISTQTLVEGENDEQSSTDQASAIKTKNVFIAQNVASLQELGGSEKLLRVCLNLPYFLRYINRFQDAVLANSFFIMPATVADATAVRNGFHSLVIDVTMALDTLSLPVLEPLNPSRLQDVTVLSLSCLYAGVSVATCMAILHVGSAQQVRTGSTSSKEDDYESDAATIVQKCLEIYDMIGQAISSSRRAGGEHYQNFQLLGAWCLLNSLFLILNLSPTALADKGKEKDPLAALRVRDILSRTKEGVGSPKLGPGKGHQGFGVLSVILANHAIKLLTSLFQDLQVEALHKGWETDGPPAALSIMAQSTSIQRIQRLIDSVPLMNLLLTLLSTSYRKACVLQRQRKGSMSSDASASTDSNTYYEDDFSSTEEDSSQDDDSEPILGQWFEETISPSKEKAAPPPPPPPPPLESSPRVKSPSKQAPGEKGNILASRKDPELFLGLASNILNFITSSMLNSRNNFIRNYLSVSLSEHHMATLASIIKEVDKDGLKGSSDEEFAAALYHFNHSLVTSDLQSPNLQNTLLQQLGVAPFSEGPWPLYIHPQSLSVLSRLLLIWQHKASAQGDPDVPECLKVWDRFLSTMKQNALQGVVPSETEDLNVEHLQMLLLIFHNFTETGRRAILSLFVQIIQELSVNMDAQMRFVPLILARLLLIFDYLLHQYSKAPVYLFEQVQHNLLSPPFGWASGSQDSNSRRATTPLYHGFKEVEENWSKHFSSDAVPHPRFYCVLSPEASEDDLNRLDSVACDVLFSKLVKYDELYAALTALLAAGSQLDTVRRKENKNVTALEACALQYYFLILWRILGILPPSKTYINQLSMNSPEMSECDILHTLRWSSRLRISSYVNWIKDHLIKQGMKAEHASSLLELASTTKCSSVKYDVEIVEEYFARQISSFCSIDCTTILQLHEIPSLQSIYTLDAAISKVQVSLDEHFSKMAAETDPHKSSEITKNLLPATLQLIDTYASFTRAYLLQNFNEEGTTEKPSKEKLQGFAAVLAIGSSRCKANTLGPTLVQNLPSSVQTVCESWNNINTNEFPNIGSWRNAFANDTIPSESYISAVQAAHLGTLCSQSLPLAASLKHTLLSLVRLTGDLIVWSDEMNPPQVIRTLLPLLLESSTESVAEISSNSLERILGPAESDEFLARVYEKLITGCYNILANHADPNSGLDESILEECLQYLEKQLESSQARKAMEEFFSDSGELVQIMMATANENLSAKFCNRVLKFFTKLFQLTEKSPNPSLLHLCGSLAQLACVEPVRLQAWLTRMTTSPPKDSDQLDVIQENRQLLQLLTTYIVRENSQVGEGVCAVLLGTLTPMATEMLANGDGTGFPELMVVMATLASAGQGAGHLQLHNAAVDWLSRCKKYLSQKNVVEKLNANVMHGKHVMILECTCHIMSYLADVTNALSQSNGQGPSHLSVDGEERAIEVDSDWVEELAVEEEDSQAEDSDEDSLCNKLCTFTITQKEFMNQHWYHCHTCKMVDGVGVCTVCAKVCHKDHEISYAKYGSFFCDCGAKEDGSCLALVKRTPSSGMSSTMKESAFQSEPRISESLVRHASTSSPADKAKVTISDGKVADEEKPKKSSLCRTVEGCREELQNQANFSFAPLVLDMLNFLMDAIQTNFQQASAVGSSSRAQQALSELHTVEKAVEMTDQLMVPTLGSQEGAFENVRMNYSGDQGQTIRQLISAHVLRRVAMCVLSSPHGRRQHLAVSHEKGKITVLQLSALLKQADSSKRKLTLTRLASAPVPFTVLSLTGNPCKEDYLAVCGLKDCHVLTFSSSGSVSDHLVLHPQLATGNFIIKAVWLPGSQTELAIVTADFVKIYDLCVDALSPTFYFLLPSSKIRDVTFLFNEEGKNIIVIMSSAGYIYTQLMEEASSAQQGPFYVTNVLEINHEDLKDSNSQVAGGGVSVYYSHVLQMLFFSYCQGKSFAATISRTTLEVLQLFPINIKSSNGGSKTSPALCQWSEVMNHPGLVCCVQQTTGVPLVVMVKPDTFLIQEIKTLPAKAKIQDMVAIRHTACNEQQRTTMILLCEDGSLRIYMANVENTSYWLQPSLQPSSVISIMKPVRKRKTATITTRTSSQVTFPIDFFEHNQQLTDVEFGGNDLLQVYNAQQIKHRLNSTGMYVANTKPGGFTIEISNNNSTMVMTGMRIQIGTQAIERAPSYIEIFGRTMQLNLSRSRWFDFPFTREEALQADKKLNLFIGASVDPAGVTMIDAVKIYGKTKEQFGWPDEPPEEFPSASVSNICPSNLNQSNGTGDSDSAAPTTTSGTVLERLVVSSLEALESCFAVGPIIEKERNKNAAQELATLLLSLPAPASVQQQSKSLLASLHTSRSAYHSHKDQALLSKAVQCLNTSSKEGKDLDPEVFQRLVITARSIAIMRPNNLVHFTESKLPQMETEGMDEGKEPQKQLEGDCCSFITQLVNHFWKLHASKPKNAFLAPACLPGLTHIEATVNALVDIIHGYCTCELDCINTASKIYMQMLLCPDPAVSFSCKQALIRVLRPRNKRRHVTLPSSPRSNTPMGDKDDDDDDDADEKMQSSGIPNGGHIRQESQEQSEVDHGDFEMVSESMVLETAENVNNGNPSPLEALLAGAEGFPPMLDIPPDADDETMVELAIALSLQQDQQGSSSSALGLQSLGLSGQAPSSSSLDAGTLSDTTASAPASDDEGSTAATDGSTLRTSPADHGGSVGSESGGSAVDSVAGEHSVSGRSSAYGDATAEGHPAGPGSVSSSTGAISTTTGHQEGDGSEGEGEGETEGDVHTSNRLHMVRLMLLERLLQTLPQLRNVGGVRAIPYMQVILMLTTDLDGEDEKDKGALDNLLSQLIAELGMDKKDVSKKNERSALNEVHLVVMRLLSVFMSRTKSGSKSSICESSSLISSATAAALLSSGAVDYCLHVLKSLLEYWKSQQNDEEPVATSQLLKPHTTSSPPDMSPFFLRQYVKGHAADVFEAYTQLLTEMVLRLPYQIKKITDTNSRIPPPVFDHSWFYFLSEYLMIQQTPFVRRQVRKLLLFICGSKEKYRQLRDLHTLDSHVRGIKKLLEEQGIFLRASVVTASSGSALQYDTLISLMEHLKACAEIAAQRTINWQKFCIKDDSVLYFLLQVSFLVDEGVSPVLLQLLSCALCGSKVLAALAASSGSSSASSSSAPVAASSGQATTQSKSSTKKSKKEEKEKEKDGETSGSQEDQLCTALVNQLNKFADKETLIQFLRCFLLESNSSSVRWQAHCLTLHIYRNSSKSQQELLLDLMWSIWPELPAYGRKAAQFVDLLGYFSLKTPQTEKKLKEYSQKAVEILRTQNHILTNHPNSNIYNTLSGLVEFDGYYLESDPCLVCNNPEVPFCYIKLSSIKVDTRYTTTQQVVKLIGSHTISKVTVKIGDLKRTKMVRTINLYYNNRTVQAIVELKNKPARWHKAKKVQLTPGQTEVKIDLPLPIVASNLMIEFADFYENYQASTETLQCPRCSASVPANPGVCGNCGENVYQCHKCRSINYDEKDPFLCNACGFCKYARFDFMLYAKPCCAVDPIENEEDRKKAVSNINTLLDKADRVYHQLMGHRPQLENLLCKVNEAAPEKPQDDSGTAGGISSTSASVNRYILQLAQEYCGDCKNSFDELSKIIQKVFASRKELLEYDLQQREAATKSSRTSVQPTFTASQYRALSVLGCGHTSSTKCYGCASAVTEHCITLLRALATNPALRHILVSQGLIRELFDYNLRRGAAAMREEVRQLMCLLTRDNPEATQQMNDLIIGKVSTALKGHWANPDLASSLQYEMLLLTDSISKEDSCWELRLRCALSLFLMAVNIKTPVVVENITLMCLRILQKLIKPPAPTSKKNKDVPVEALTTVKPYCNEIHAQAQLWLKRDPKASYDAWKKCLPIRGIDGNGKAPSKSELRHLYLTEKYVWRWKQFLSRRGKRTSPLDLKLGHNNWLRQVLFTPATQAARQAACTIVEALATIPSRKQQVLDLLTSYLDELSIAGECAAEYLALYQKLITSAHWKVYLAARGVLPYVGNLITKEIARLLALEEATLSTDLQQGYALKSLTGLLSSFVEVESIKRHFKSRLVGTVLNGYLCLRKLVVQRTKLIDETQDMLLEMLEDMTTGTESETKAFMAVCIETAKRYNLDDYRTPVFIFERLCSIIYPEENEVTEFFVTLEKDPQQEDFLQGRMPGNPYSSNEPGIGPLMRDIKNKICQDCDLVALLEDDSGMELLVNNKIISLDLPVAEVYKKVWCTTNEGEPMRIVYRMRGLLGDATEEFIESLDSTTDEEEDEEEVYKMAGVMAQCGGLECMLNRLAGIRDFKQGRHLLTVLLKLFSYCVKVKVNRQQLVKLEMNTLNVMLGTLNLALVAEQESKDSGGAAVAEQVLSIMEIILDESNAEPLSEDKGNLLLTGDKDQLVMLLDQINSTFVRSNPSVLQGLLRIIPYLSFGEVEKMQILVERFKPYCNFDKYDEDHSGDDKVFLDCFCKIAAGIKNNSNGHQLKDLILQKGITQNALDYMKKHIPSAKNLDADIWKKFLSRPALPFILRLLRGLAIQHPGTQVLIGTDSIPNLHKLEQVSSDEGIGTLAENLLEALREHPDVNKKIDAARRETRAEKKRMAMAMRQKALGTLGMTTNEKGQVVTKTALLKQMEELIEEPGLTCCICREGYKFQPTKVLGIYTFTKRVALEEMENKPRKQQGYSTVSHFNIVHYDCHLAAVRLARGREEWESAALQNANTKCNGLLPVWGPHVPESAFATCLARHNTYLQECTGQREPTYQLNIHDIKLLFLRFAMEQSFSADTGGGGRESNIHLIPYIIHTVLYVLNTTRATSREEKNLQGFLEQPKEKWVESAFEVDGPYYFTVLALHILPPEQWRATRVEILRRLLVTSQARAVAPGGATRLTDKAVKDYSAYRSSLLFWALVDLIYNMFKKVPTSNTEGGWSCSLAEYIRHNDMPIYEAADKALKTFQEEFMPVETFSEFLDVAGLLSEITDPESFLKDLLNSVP

Numbering of substitutions follows the chain as printed. Read-outs that look alike come from different tables or passages of the source. Results are given in words; binding and its absence hold for the method and conditions named. In cells and extracts the contact can be indirect. A yes stands for co-enrichment or nearness to the bait. Other partners may have been found. For some assays here: A no says only that the protein was not detected with the bait. Tags and fused reporters may be left off the sequences shown.

Assay [1] addresses T1, KLHL6 L65P fused to C-terminal BioID2 (human) (UniProt Q8WZ60).
T1 sequence: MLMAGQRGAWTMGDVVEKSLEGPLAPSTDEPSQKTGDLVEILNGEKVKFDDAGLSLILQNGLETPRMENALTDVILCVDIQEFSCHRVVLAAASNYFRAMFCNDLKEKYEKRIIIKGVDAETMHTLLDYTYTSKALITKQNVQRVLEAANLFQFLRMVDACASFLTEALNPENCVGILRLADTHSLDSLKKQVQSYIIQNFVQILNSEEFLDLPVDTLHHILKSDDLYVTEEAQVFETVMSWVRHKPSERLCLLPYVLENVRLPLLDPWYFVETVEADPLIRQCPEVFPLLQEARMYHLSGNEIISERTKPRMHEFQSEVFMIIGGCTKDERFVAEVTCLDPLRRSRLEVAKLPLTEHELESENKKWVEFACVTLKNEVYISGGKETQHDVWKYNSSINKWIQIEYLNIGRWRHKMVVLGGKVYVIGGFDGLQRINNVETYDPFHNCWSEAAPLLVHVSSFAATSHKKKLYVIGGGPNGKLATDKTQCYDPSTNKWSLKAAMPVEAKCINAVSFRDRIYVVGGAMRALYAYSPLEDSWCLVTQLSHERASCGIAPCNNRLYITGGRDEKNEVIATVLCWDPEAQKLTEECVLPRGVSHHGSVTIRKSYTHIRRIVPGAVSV
The assay is described as follows: proximity labelling; KLHL6 baits with C-terminal BioID2 stably expressed in SuDHL5, no added biotin; lysis with 0.1% SDS; biotinylated proteins purified on Strep-Tactin Sepharose; mass spectrometry; BioID2-tagged EmGFP controls.

The target in assay [2] is T2, KLHL6 wild type fused to C-terminal BioID2 (human) (UniProt Q8WZ60).
T2 sequence: T1 sequence with P65L
The description is as above.

Assay [3] addresses T3, KLHL6 wild type, C-terminal Strep-HA tag (KLHL6-strHA) (human) (UniProt Q8WZ60).
T3 sequence: T1 sequence with P65L
As to the kind of experiment: affinity purification with mass spectrometry; C-terminally Strep-HA-tagged KLHL6 baits stably expressed in SuDHL5; lysis in 0.5% IGEPAL, 50 mmol/L HEPES pH 8.0, 150 mmol/L NaCl, 5 mmol/L EDTA; one-step purification on Strep-Tactin Sepharose; EmGFP controls; SAINT and DESeq2; also done 60 seconds after BCR cross-linking with anti-human IgM F(ab')2 or control goat IgG.

Assay [4] deals with T4, KLHL6 L65P, C-terminal Strep-HA tag (human) (UniProt Q8WZ60).
T4 sequence: T1 sequence
Described as above.

The target of assay [5] is T5, KLHL6 L90F, C-terminal Strep-HA tag (human) (UniProt Q8WZ60).
T5 sequence: T1 sequence with P65L, L90F
The assay is described as above.

Assay [6] has as its target T6, KLHL6 E568K, C-terminal Strep-HA tag (human) (UniProt Q8WZ60).
T6 sequence: T1 sequence with P65L, E568K
Described as above.

Assay [7] deals with T3, KLHL6 wild type, C-terminal Strep-HA tag (KLHL6-strHA) (human). The description is as above. This is another data set of the same source.

As to “deubiquitinating enzyme 25 (USP25) (from UniProt Q9UHP3 1-1055)”, the binding result in assay [1] is “binds weakly”; in assay [2] it was “binds”.

As to “E3 ubiquitin ligase UBR4 (from UniProt Q5T4S7 1-5183)”, the binding result in assay [1] is “binds weakly”; in assay [2], “binds”; in assay [3], “binds”.

B1: endogenous KLHL6 (protein, UniProt Q8WZ60 1-621)
chain: T1 sequence with P65L
Turning to B1, the binding entry in assay [4] and in assay [5] was “binds” each time.

B2: KLHL26 (protein, UniProt Q53HC5 1-615)
chain: MAESGGSSGGAGGGGAFGAGPGPERPNSTADKNGALKCTFSAPSHSTSLLQGLATLRAQGQLLDVVLTINREAFPAHKVVLAACSDYFRAMFTGGMREASQDVIELKGVSARGLRHIIDFAYSAEVTLDLDCVQDVLGAAVFLQMLPVVELCEEFLKAAMSVETCLNIGQMATTFSLASLRESVDAFTFRHFLQIAEEEDFLRLPLERLVFFLQSNRLQSCAEIDLFRAAVRWLQHDPARRPRASHVLCHIRFPLMQSSELVDSVQTLDIMVEDVLCRQYLLEAFNYQVLPFRQHEMQSPRTAVRSDVPSLVTFGGTPYTDSDRSVSSKVYQLPEPGARHFRELTEMEVGCSHTCVAVLDNFVYVAGGQHLQYRSGEGAVDACYRYDPHLNRWLRLQAMQESRIQFQLNVLCGMVYATGGRNRAGSLASVERYCPRRNEWGYACSLKRRTWGHAGAASGGRLYISGGYGISVEDKKALHCYDPVADQWEFKAPMSEPRVLHAMVGAGGRIYALGGRMDHVDRCFDVLAVEYYVPETDQWTSVSPMRAGQSEAGCCLLERKIYIVGGYNWRLNNVTGIVQVYNTDTDEWERDLHFPESFAGIACAPVLLPRAGTRR
Turning to B2, the binding result is given as “binds” in assay [6], “no binding” in assay [4], “no binding” in assay [5] and “binds” in assay [7].
